Sequences and labels used below:
B1: Farp1 (FERM, ARHGEF, and pleckstrin domain-containing protein 1), endogenous (protein, UniProt F1LYQ8 1-1049)
chain: MGEIEQKPTPASRLGAPENSGISTLERGQKPPPTPSGKLMTVKIQMLDDTQEAFEVPQRAPGKVLFDAVCNHLNLVEGDYFGLEFPDHRKIVVWLDLLKPIVKQIRRPKHVLVKFVVKFFPPDHTQLQEELTRYLFALQVKQDLAQGRLTCNDTSAALLISHIVQSEIGDFDEALDREHLAKNKYVPQQDALEDKIVEFHHSHIGQTPAESDFQLLEVARRLEMYGIRLHPAKDREGTKINLAVANTGILVFQGFTKINAFNWAKVRKLSFKRKRFLIKLRPDVNSSYQDTLEFLMAGRDFCKSFWKICVEHHAFFRLFEEPKPKPKPVLFSRGSSFRFSGRTQKQVLDYVKEGGHKKVQFERKHSKIHSTRSLVSQPTAPNSEVPKQSPQSASLTFGEGTESPSAQSCQQAKETKVCTLEPGPRQSPALSKSPSGSKAADGTAAAAPPEEEDEEEGGKDGIRPSNPQPPQPSTGSLTGSPHLSELSINSQGGAAPANVTLSPNLSPDNKQASPLISPLLNDQACPRTDDEEEGRRKRFPTDKAYYIAKEVSTTERTYLKDLEVIASWFQSTVSKEDSMPEALKSLIFPNFEPLHKFHTNFLKEIEQRLALWEGRSNAHIRGDYQRIGDVMLKNIQGMKHLAAHLWKHSEALEALETSIKGSRRLEHFCRDFELQKVCYLPLNTFLLRPLHRLMHYKQVLERLCKHHPPNHADFRDCRAALAEITEMVAQLHGTMIKMENFQKLHELKKDLIGIDNLVIPGREFIRLGSLSKLSGKGLQQRMFFLFNDVLLYTSRGLTASNQFKVHGQLPLYGMTIEESEEEWGVPHCLTLRGQRQSIIVAASSRSEMEKWLEDIQMAIDLAEKSNGPTPELLASSPPDNKSPDEATAADQESEDDLSASRTSLERQAPHRGNTMVHVCWHRSTSVSMVDFSIAVENQLSGNLLRKFKNSNGWQKLWVVFTNFCLFFYKSHQDSHPLASLPLLGYSLTIPSESENIHKDYVFKLHFKSHVYYFRAESEYTFERWMEVIRSATSSASRAHSLSHKESHLY
B2: Arhgef2 (Rho guanine nucleotide exchange factor 2), endogenous (protein, UniProt Q5FVC2 1-985)
chain: MSRIESLTRARIDRSKEQATKTREKEKMKEAKDARYTNGHLFTTISVSGMTMCYACNKSITAKEALICPTCNVTIHNRCKDTLANCTKVKQKQQKAALLRNNTALQSVSLRSKTTTRERPTSAIYPSDSFRQSLLGSRRGLSSLSLAKSVSTTNIAGHFNDESPLGLRQILSQSTDSLNMRNRTLSVESLIDEGVEVFYNELMSDFEMDEKDFEADSWSLAVDSSFLQQHKKEVMKKQDVIYELIQTELHHVRTLKIMTRLFRTGMLEELQMEPEVVQGLFPCVDELSDIHTRFLSQLLERRRQALCPGSTRNFVIHRLGDLLISQFSGSNAEQMRKTYSEFCSRHTKALKLYKELYARDKRFQQFIRKMTRSAVLKRHGVQECILLVTQRITKYPVLINRILQNSHGIEEEYQDLAAALGLVKELLSNVDQDVHELEKEARLQEIYNRMDPRAQTPVPGKGPFGRDELLRRKLIHDGCLLWKTATGRFKDVLLLLMTDVLVFLQEKDQKYIFTSLDKPSVVSLQNLIVRDIANQAKGMFLISSGPPEMYEVHAASRDDRTTWIRVIQQSVRLCPSREDFPLIETEDKAYLRRIKTKLQQKNQALVELLQMNVELFAEMVHFQALKAGFIGMPPPTLPRGLFRLESFESLRGERLLKDALREVEGLKDLLLGPCVDLPLTAREPALPVEADSGSCPGVTANGEARTFNGSIELCRADSDSSQKDRNGNQLRSPQEEALQPLVNLYGLLQGLQAVVVQQERLMEALFPEGPERWEKLSRANSRDGEAGRAAVASVTPEKQATELALLQRQHSLLQEELRRCQRLGEERATEAGSLEARLRESEQARALLEREAEEIRRQLAALGQNEPLPAEAPWARRPLDPRRRSLPAGDALYLSFNPPQPSRGHDRLDLPVTVRSLHRPFDDREAQELGSPEDRLQDSSDPDTCSEEEVSSRLSPPHSPRDFTRMQDIPEETESRDGEPTASES
B3: SynCAM 1, endogenous (protein, UniProt Q6AYP5-1 48-476)
chain: QNLFTKDVTVIEGEVATISCQVNKSDDSVIQLLNPNRQTIYFRDFRPLKDSRFQLLNFSSSELKVSLTNVSISDEGRYFCQLYTDPPQESYTTITVLVPPRNLMIDIQKDTAVEGEEIEVNCTAMASKPATTIRWFKGNKELKGKSEVEEWSDMYTVTSQLMLKVHKEDDGVPVICQVEHPAVTGNLQTQRYLEVQYKPQVQIQMTYPLQGLTREGDAFELTCEATGKPQPVMVTWVRVDDEMPQHAVLSGPNLFINNLNKTDNGTYRCEASNTVGKAHSDYMLYVYDPPTTIPPPTTTTTTTTTTTTTTTILTIITDTTATTEPAVHGLTQLPNSAEELDSEDLSDSRAGEEGAIGAVDHAVIGGVVAVVVFAMLCLLIILGRYFARHKGTYFTHEAKGADDAADADTAIINAEGGQNNSEEKKEYFI

Protein sequences, listed by entry. Tags and fused reporters are not part of them. Residues count along the entry.
UniProt P28471, residues 36-552: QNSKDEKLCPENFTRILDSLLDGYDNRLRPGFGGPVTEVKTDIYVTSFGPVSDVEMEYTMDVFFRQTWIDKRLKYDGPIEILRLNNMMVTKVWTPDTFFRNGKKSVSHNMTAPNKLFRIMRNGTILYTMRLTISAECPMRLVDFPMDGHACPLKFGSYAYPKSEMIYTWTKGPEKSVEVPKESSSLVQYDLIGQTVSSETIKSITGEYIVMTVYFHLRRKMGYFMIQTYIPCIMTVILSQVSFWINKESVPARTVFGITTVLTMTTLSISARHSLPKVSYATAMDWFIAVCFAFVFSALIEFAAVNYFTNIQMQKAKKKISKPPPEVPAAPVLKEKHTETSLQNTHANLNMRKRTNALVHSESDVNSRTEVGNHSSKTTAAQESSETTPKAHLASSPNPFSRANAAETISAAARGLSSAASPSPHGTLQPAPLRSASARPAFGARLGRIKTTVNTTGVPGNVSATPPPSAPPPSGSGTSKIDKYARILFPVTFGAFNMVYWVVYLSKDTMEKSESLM
UniProt P59215: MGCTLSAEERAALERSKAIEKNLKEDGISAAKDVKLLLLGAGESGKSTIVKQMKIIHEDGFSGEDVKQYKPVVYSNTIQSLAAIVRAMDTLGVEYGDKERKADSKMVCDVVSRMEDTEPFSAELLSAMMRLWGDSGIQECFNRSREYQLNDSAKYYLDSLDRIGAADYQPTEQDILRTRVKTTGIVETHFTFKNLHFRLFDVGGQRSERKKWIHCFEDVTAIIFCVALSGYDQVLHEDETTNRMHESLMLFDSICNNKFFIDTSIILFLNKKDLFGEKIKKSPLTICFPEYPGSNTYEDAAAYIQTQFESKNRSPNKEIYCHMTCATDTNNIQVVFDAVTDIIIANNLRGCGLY
UniProt P63138, residues 26-474: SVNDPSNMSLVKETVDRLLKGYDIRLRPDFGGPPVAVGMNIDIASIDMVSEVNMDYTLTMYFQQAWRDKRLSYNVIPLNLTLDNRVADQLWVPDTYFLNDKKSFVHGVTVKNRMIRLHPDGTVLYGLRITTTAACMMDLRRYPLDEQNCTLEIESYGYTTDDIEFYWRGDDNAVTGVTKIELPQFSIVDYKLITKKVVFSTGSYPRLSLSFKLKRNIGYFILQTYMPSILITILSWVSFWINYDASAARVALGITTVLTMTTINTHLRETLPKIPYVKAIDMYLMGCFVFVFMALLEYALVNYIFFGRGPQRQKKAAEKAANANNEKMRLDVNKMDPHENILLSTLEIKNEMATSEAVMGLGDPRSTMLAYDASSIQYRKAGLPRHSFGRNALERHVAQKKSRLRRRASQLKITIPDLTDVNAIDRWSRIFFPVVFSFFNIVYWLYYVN
UniProt P62813, residues 28-455: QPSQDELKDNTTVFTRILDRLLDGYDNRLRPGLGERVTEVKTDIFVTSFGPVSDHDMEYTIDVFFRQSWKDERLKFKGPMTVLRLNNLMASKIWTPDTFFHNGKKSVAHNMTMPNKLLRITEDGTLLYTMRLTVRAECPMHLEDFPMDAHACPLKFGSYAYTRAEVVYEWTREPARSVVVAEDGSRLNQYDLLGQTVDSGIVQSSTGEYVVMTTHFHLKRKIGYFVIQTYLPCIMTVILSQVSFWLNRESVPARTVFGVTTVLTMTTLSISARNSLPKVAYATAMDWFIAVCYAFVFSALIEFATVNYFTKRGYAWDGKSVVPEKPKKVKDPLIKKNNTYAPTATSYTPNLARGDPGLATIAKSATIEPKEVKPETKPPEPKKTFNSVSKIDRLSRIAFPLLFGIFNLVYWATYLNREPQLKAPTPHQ
UniProt P63079, residues 26-473: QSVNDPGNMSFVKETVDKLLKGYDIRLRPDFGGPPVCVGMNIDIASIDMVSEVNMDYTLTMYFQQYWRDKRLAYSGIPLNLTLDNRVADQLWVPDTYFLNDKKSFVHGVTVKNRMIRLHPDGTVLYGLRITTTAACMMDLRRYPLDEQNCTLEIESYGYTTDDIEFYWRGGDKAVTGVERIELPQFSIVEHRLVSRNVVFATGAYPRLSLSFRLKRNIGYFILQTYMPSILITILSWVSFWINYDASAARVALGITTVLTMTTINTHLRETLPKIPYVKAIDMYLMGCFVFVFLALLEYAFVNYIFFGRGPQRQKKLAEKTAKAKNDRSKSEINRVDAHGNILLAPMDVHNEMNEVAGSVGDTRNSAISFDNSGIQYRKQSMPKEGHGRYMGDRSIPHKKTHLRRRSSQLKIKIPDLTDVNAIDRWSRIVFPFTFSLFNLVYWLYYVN
UniProt Q5I6B8: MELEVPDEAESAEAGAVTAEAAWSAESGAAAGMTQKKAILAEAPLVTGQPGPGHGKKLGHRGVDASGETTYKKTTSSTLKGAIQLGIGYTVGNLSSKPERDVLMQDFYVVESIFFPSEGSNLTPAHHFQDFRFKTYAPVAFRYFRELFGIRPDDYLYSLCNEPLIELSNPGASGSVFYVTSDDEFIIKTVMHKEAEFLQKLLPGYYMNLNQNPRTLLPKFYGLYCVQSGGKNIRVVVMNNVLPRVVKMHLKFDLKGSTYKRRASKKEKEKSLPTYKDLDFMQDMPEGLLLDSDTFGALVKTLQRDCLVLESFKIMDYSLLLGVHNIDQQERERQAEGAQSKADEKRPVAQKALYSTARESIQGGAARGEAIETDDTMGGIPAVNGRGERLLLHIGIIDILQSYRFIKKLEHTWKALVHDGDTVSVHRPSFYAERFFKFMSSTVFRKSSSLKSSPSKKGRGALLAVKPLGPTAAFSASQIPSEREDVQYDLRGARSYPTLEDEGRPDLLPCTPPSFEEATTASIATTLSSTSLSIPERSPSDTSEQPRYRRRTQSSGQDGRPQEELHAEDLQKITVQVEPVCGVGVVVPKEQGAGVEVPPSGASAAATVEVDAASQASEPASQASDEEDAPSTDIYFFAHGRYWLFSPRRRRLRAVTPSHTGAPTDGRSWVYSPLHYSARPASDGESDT
UniProt P31016, residues 403-724: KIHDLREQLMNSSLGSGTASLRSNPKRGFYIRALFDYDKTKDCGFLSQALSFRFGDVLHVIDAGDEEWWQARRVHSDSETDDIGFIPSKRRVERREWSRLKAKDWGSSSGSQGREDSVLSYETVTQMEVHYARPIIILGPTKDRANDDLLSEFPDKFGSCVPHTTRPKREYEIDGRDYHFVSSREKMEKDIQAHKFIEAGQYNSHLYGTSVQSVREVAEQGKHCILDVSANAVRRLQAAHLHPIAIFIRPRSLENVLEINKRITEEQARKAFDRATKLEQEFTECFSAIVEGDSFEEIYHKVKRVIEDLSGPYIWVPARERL
UniProt Q5XI81: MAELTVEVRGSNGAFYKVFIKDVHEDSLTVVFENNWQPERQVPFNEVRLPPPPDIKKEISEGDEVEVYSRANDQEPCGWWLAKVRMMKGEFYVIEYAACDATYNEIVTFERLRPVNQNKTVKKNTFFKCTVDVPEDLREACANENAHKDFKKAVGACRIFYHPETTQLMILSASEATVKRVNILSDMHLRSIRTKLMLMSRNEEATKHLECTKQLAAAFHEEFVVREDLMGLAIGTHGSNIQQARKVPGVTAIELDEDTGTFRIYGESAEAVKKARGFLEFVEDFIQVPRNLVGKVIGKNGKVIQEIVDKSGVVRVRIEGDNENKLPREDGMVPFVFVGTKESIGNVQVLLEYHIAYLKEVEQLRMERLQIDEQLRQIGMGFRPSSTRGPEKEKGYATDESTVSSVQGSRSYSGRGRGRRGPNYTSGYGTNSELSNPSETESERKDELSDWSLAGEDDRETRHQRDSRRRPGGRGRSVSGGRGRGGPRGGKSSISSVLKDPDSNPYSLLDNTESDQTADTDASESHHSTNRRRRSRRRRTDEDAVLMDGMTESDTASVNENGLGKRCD
UniProt P34926: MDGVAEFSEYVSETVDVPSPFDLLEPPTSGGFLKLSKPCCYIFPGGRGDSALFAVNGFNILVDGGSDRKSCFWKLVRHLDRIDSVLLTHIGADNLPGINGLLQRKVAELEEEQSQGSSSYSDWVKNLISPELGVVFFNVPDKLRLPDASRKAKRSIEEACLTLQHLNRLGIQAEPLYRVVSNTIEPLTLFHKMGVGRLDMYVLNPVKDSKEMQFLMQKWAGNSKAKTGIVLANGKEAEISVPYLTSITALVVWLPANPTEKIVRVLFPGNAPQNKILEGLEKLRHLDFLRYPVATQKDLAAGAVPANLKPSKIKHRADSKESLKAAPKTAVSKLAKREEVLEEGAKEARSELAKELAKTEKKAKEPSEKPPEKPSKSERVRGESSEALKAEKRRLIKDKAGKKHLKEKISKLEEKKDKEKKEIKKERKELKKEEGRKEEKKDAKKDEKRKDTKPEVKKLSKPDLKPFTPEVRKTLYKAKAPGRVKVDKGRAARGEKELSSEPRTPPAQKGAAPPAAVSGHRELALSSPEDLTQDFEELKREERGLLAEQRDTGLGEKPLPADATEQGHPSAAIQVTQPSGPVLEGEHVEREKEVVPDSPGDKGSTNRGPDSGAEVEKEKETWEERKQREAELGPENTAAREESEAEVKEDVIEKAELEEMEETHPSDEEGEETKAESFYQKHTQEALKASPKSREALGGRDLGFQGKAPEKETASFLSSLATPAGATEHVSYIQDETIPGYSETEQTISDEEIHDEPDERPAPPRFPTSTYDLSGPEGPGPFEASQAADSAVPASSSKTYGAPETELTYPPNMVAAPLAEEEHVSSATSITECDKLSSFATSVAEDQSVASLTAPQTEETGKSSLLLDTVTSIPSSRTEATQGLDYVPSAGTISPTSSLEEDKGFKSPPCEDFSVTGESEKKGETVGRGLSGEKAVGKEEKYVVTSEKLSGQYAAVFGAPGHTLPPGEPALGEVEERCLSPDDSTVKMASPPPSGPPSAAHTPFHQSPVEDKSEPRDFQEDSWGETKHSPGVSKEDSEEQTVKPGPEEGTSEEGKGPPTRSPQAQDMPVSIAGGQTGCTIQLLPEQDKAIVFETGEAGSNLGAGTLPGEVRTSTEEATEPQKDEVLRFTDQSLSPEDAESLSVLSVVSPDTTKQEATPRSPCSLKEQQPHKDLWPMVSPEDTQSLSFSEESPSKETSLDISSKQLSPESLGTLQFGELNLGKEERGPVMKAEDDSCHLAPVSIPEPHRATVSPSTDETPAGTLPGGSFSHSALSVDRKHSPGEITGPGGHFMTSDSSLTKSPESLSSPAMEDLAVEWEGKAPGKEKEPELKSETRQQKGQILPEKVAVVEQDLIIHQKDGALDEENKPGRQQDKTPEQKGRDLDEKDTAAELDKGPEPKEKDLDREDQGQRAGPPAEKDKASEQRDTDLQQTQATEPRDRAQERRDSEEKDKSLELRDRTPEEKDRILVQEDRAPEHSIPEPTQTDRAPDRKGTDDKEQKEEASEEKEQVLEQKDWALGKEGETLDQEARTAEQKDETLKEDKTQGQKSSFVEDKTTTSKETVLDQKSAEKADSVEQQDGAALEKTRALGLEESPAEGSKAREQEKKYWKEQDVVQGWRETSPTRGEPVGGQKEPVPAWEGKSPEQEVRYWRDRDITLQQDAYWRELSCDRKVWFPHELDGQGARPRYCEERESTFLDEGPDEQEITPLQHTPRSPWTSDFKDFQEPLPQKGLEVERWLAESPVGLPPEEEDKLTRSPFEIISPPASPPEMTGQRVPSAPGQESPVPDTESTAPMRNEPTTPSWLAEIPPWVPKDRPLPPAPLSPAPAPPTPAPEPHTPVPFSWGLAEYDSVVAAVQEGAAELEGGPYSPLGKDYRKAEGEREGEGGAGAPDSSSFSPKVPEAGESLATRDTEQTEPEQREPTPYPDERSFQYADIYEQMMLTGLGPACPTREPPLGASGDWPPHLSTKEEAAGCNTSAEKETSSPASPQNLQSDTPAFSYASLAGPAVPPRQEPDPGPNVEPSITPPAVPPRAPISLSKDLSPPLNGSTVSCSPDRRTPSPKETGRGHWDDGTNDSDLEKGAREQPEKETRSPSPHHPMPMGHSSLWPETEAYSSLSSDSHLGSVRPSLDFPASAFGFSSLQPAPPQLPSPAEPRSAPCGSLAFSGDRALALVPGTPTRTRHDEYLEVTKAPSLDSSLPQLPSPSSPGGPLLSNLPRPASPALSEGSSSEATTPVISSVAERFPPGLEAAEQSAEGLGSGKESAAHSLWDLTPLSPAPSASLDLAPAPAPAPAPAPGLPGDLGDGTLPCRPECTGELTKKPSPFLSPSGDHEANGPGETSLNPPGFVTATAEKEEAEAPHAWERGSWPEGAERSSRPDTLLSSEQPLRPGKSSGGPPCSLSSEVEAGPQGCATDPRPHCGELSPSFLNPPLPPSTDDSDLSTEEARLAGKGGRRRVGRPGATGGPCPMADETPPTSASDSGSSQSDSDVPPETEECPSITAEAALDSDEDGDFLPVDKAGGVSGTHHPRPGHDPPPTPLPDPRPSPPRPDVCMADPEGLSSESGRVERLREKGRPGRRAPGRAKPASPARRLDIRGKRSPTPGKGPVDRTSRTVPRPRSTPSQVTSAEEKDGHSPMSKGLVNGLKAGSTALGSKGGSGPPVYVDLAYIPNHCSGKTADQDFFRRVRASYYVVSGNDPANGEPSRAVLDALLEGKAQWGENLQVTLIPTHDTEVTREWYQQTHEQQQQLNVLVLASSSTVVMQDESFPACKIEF

Results are given in words; binding and its absence hold for the method and conditions named. Binding seen in cells or lysates may run through a third protein. These calls come from enrichment with a bait or labelling near it, and not all partners need be listed. For part of these data: No binding means not detected with the bait. For part of these data: Where a sequence is shown, tags or fusion partners need not be part of it.

For one assay, the target named is T1, GST-MPP2-SH3GK (mouse) (UniProt Q9WV34).
T1 sequence: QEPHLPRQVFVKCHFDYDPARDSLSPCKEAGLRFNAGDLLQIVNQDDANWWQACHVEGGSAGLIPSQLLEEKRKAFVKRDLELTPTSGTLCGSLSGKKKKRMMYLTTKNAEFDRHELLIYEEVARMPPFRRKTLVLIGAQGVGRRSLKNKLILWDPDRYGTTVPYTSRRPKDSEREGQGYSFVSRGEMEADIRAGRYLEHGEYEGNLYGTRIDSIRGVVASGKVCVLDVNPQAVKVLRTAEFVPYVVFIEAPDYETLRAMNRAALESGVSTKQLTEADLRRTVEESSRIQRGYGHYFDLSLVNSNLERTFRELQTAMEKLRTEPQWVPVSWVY
In words: affinity purification with mass spectrometry; GST-SH3GK proteins on glutathione agarose, 3 hours with lysate of adult rat brain crude synaptosomes (1% Triton-X/PBS), 3 washes PBS/1% Triton X-100; SDS-PAGE, 16O/18O-labelling, nanoLC-MS/MS; duplicates with inverted labelling; only the target purified.
“GABAA receptor subunit α4, endogenous (from UniProt P28471 36-552)”: the binding entry was “binds”.

Consider “Gnao1 (Guanine nucleotide-binding protein G(o) subunit alpha), endogenous (from UniProt P59215 1-354)”, for which the binding entry is reported as “binds”.

Consider “GABAA receptor subunit β2, endogenous (from UniProt P63138 26-474)”, for which the binding result is “binds”.

On to “GABAAR α1 (Gamma-aminobutyric acid receptor subunit alpha-1), endogenous (from UniProt P62813 28-455)”, for which the binding entry was “binds”.

“Ppp3ca (Serine/threonine-protein phosphatase 2B catalytic subunit alpha isoform), endogenous (from UniProt P63329 1-521) (enzyme)”: the binding result is reported as “binds”.

Regarding “GABAAR β3 (Gamma-aminobutyric acid receptor subunit beta-3), endogenous (from UniProt P63079 26-473)”, the binding result is listed as “binds”.

Turning to “Pip5k1c (Phosphatidylinositol 4-phosphate 5-kinase type-1 gamma), endogenous (from UniProt Q5I6B8 1-688) (enzyme)”, the binding result was “binds”.

The target in another assay is GST-PSD-95-SH3GK (UniProt P31016). Described as above.
Turning to “Fxr1, endogenous (from UniProt Q5XI81 1-568)”, the binding result is on record as “binds”.

On to “Map1a, endogenous (from UniProt P34926 1-2774)”, for which the binding result is recorded as “binds”.

The next assay addresses T1, GST-MPP2-SH3GK (mouse). The description is as above. This is another data set of the same source.
For the molecule B1, the binding entry is on record as “binds”.

With B2, the binding result is given as “binds”.

For B3, the binding entry was “no binding”.

These data come from PMC8970474.
